From the supplement of paper PMC6411743 come the findings set out here.

Amino acid sequences for entries named in this document (tags omitted). A change or cut given only in a name is not applied to a line headed by its entry.
UniProt Q8TE02: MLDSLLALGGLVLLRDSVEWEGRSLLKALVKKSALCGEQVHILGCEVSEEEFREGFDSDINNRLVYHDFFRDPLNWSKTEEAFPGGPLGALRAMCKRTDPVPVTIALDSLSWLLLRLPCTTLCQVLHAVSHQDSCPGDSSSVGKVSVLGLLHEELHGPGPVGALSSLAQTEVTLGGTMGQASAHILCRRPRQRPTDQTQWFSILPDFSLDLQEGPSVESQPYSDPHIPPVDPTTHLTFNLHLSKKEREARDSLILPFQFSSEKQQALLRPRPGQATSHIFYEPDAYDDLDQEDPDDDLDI
UniProt Q2TAA2: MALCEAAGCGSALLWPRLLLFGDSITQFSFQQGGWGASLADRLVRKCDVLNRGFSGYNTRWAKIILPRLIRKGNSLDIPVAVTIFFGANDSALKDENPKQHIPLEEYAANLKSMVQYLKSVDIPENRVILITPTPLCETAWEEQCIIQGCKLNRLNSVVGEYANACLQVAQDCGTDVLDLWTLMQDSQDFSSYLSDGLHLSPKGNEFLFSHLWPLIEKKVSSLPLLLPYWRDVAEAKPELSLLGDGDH
UniProt P62191: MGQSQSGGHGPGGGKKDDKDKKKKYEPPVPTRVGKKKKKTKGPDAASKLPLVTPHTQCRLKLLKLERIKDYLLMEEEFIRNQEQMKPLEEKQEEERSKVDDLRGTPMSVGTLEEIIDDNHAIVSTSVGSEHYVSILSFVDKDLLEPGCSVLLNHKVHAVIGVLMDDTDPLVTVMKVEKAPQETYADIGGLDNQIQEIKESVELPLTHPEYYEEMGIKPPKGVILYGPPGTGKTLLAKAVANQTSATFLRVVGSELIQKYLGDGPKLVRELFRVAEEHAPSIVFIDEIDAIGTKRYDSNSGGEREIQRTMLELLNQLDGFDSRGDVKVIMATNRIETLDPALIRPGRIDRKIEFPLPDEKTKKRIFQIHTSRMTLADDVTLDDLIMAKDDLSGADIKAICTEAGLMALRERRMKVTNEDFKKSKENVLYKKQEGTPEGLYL
UniProt Q96GQ5: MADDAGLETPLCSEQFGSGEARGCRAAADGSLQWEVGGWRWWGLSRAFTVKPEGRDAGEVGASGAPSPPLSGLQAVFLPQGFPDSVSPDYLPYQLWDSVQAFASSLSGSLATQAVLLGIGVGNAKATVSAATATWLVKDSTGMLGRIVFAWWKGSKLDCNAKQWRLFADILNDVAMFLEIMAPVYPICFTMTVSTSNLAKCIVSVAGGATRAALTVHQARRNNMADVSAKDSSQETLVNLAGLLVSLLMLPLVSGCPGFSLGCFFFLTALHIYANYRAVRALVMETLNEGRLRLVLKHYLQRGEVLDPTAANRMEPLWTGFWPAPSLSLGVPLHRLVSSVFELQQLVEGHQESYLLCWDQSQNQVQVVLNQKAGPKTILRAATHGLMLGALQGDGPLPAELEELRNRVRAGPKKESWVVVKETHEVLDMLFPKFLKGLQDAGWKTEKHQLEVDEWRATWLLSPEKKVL
UniProt Q9NTK5, whole entry, looked up: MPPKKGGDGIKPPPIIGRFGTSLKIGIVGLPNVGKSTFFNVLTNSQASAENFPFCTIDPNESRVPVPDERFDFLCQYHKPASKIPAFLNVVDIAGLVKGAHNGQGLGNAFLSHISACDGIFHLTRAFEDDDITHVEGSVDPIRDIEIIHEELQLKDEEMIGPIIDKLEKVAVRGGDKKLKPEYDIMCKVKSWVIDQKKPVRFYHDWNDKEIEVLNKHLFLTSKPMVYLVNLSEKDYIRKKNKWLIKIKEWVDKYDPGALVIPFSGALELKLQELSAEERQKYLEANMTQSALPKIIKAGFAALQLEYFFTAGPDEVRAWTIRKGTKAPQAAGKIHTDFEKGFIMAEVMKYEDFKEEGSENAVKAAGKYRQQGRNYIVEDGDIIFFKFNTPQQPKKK
UniProt Q15629: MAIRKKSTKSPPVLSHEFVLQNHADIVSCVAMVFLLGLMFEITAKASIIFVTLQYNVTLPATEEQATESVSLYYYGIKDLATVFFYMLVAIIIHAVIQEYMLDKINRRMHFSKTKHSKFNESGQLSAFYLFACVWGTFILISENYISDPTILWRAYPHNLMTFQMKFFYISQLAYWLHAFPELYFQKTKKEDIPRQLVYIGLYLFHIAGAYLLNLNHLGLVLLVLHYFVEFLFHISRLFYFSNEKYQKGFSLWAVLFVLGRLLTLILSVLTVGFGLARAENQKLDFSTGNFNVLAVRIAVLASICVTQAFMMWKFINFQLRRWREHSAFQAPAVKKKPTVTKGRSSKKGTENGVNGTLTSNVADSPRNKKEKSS
UniProt Q14119: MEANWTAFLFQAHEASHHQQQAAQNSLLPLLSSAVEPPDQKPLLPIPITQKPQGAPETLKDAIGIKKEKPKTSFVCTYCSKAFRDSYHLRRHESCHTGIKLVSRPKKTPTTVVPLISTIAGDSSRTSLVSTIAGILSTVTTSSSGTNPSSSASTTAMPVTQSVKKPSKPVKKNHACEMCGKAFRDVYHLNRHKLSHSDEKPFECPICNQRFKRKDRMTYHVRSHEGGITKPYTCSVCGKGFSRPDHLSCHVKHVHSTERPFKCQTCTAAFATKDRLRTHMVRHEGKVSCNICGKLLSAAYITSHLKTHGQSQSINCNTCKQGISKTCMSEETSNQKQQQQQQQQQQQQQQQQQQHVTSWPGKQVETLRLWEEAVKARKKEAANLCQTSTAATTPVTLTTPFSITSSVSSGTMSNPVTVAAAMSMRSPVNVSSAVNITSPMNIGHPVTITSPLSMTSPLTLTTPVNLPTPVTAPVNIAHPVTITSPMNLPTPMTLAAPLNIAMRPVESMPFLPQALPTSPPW
UniProt Q13620, whole entry: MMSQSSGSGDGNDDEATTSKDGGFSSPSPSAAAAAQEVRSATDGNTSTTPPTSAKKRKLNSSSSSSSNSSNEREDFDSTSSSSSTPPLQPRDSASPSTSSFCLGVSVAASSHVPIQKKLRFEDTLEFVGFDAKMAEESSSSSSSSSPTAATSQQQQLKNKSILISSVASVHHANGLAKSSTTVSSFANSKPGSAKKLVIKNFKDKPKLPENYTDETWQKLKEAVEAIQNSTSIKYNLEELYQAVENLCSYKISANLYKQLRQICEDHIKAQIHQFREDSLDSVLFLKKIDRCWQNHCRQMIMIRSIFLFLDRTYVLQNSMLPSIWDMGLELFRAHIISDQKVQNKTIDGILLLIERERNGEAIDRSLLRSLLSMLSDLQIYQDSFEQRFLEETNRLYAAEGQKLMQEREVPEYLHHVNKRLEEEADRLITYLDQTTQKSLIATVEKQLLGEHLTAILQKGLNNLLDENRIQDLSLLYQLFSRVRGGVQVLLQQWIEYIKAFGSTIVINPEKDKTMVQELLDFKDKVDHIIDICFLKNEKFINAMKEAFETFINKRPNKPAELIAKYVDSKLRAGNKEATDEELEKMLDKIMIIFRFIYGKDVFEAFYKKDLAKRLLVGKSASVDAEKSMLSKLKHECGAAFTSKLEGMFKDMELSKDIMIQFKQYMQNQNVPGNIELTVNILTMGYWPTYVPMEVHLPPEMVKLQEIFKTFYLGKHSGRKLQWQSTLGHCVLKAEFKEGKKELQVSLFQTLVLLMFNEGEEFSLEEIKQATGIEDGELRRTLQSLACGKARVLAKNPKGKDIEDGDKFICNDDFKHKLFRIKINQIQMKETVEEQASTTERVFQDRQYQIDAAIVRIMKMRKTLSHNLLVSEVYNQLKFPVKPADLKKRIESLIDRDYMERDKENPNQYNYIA
UniProt H0UI80: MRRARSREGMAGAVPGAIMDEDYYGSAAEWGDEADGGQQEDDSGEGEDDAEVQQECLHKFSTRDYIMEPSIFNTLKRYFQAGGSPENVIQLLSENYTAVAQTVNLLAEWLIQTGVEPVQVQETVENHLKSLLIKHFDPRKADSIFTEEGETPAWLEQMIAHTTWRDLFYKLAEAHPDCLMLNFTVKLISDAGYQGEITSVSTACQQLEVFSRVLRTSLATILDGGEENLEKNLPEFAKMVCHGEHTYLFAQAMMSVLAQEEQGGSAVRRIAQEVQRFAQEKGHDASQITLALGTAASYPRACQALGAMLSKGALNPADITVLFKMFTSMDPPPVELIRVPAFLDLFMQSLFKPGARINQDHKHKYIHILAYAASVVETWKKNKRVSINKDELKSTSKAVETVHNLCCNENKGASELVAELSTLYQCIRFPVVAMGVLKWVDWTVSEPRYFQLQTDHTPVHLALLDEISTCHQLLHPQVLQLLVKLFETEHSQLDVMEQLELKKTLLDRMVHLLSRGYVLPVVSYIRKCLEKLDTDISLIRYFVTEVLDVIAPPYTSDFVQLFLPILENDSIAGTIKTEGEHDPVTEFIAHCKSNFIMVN
UniProt P32322: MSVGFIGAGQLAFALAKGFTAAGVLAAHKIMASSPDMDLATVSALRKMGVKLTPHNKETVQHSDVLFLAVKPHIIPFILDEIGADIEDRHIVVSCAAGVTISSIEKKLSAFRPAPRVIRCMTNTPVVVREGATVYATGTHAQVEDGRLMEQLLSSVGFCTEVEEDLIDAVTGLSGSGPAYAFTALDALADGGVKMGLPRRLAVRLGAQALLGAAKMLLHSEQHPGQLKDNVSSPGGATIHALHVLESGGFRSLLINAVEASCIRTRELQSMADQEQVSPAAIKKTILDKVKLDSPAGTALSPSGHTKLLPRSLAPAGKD
UniProt Q8WXB1: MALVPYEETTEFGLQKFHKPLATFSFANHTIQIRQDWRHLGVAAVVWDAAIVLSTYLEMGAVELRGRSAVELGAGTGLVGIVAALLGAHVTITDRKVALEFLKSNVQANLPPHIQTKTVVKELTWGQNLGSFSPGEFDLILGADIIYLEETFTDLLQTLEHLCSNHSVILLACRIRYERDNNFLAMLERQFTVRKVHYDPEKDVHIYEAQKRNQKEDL
UniProt O75880: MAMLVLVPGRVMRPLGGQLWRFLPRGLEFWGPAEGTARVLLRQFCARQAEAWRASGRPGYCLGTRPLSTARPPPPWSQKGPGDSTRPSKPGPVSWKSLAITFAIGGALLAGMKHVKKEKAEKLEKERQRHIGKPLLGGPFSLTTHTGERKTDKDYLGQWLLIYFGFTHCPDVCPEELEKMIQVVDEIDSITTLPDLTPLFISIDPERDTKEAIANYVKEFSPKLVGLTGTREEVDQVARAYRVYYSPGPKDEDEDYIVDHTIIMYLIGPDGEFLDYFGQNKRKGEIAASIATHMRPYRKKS
UniProt Q8N9N7: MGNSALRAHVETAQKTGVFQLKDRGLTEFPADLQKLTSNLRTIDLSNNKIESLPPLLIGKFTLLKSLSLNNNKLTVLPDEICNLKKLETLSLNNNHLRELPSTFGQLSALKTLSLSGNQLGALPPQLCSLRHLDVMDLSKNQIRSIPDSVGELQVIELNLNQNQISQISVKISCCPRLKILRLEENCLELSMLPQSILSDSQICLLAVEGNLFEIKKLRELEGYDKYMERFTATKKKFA
UniProt Q5BKY9: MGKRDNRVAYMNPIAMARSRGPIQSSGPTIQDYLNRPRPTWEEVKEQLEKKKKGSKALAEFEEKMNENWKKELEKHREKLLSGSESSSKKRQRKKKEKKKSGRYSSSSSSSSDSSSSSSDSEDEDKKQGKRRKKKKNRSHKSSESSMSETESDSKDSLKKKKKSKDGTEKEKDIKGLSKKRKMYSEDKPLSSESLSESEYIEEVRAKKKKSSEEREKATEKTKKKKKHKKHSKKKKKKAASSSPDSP
UniProt Q9UG56: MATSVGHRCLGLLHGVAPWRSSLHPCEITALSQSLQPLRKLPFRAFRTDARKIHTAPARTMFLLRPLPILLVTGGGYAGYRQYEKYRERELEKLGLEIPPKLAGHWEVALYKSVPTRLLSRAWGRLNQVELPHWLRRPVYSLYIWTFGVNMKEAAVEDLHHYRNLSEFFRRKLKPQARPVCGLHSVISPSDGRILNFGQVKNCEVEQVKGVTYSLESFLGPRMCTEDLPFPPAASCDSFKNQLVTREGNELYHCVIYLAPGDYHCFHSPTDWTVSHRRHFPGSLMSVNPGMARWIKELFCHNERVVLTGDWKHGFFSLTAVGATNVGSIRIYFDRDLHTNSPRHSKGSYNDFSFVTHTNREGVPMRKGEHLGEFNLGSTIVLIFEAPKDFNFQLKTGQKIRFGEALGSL
UniProt Q5J8M3, whole entry: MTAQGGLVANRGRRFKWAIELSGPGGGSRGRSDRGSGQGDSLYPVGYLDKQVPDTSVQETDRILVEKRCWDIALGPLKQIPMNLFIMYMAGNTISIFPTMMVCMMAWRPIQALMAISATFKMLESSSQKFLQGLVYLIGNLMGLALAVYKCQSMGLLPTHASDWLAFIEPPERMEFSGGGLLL
UniProt O43708: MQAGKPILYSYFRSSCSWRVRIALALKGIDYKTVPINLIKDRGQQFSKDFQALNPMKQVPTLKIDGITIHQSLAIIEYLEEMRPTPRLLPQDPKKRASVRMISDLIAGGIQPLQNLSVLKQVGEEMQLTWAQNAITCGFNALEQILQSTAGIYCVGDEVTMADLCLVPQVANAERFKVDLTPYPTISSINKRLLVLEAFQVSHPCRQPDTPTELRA
UniProt Q9BRA0: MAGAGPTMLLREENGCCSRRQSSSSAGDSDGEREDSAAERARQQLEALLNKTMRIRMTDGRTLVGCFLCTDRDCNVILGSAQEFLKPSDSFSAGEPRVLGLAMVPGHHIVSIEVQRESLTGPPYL

± gives the standard deviation of the averaged measurements. The list shows a part of the results, in another mix than the full data. Most entries show no effect beyond the scatter of the controls.

Compound in the first assay: Nc1ncnc2c1ncn2[C@@H]1O[C@H](COP(=O)(O)OP(=O)(O)NP(=O)(O)O)[C@@H](O)[C@H]1O [adenylyl imidodiphosphate]
Nature of the assay: NP40-soluble protein abundance relative to vehicle (solubility fold change) (ratio); higher = more soluble protein in presence of AMP-PNP. Particulars: concentration: 0.1mM. A digest of the protocol:
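Across three independent experiments, values are fold changes against the detergent-processed vehicle for each replicate, based on vsn-normalised intensities. The samples were Jurkat crude lysate treated with eight concentrations (0.1 to 10 mM) for 10 min at room temperature and then 3 min at 37 °C. Lysate was solubilised with 0.8% NP40 and benzonase, ultracentrifuged, and the supernatant analysed by TMT-labelled LC-MS/MS.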
As to “H0YDK9 and related entries (UniProt Q5H9R7)”, the NP40-soluble protein abundance was found to be 0.951 ± 0.045.

Turning to “I3L1Q3 and related entries (UniProt Q8TE02)”, the NP40-soluble protein abundance is 1 ± 0.031.

Turning to “H7C5G1 and related entries (UniProt Q2TAA2)”, the NP40-soluble protein abundance was 0.989 ± 0.014.

As for “G3V4X1 and related entries (UniProt P62191)”, the NP40-soluble protein abundance was determined as 0.99 ± 0.027.

For the target “H0YIP2 and related entries (UniProt P49642)”, the NP40-soluble protein abundance came out at 0.978 ± 0.017.

As to “H3BSM7 and related entries (UniProt Q96GQ5)”, the NP40-soluble protein abundance amounted to 1.02 ± 0.035.

Take “J3QK89 and related entries (UniProt Q8IWX8)”: the NP40-soluble protein abundance was 1.04 ± 0.032.

On to “J3KNP4 and related entries (UniProt Q9NPR2)”, for which the NP40-soluble protein abundance came to 0.9982 ± 0.0038.

Take “J3KQ32 and related entries (UniProt Q9NTK5)”: the NP40-soluble protein abundance was 0.9771 ± 0.0097.

With “H0Y362 and related entries (UniProt Q8NEW0)”, the NP40-soluble protein abundance was determined as 1.02 ± 0.029.

Turning to “H0Y5C6 and related entries (UniProt P21333)”, the NP40-soluble protein abundance was found to be 0.972 ± 0.022.

In the case of “G3XAN4 and related entries (UniProt Q15629)”, the NP40-soluble protein abundance is 0.973 ± 0.022.

Turning to “H3BSH7 and related entries (UniProt Q969X6)”, the NP40-soluble protein abundance worked out at 1 ± 0.025.

With “H0Y9Z5 and related entries (UniProt Q96LI5)”, the NP40-soluble protein abundance was determined as 0.9805 ± 0.0035.

On to “H0YEH1 and related entries (UniProt Q13492)”, for which the NP40-soluble protein abundance was 1.01 ± 0.024.

Take “J3QSH4 and related entries (UniProt Q14119)”: the NP40-soluble protein abundance worked out at 0.963 ± 0.021.

With “K4DI93 and related entries (UniProt Q13620)”, the NP40-soluble protein abundance was 1.01 ± 0.013.

In the case of “H0UI80 and related entries (UniProt X6RLT1+Q8IXH7+H0UI80)”, the NP40-soluble protein abundance came to 0.998 ± 0.049.

On to “J3QKT3 and related entries (UniProt P32322)”, for which the NP40-soluble protein abundance is 0.996 ± 0.059.

Turning to “H7BXH9 and related entries (UniProt Q8WXB1)”, the NP40-soluble protein abundance was found to be 1.052 ± 0.0031.

For the target “H3BP71 and related entries (UniProt O75150)”, the NP40-soluble protein abundance turned out to be 1 ± 0.032.

“J3QL56 and related entries (UniProt O75880)”: the NP40-soluble protein abundance was 0.984 ± 0.012.

As for “H3BSW0 and related entries (UniProt Q8N9N7)”, the NP40-soluble protein abundance came to 0.991 ± 0.028.

As to “G3XAI9 and related entries (UniProt Q5BKY9)”, the NP40-soluble protein abundance turned out to be 0.996 ± 0.053.

In the case of “I3L397 and related entries (UniProt P63241)”, the NP40-soluble protein abundance was 0.91 ± 0.17.

As to “H0YEM9 and related entries (UniProt Q8NCP5)”, the NP40-soluble protein abundance is 1.021 ± 0.0035.

On to “H0Y7P7 and related entries (UniProt Q9UG56)”, for which the NP40-soluble protein abundance came out at 0.968 ± 0.019.

Turning to “I3L3Q7 and related entries (UniProt Q07021)”, the NP40-soluble protein abundance was 0.731 ± 0.26.

With “H0YK61 and related entries (UniProt Q5J8M3)”, the NP40-soluble protein abundance came to 0.963 ± 0.051.

As for “J3QLS3 and related entries (UniProt Q9Y2R9)”, the NP40-soluble protein abundance was determined as 1.03 ± 0.038.

Take “J3KSZ8 and related entries (UniProt Q68DK7)”: the NP40-soluble protein abundance amounted to 0.985 ± 0.012.

For the target “H0Y612 and related entries (UniProt Q9UPN9)”, the NP40-soluble protein abundance was 1.01 ± 0.033.

Regarding “G3V5T0 and related entries (UniProt O43708)”, the NP40-soluble protein abundance stood at 1.01 ± 0.021.

Consider “J3KPP0 and related entries (UniProt Q9Y6G3)”, for which the NP40-soluble protein abundance stood at 1.01 ± 0.084.

On to “H0Y8P4 and related entries (UniProt Q8TED0)”, for which the NP40-soluble protein abundance is 1.02 ± 0.079.

For the target “I3L3Z2 and related entries (UniProt Q9BRA0)”, the NP40-soluble protein abundance stood at 0.988 ± 0.041.

Regarding “J3QL71 and related entries (UniProt Q96FV2)”, the NP40-soluble protein abundance is 1.03 ± 0.064.

Staying with this assay, now noted: concentration: 0.5mM.
“H0YDK9 and related entries (UniProt Q5H9R7)”: the NP40-soluble protein abundance was 0.951 ± 0.031.

Turning to “I3L1Q3 and related entries (UniProt Q8TE02)”, the NP40-soluble protein abundance worked out at 1 ± 0.037.

Turning to “H7C5G1 and related entries (UniProt Q2TAA2)”, the NP40-soluble protein abundance stood at 1.01 ± 0.02.

Consider “G3V4X1 and related entries (UniProt P62191)”, for which the NP40-soluble protein abundance came out at 0.979 ± 0.041.

Consider “H0YIP2 and related entries (UniProt P49642)”, for which the NP40-soluble protein abundance amounted to 0.991 ± 0.012.

For the target “H3BSM7 and related entries (UniProt Q96GQ5)”, the NP40-soluble protein abundance amounted to 1.01 ± 0.046.

Take “J3QK89 and related entries (UniProt Q8IWX8)”: the NP40-soluble protein abundance is 1.05 ± 0.032.

On to “J3KNP4 and related entries (UniProt Q9NPR2)”, for which the NP40-soluble protein abundance turned out to be 0.985 ± 0.027.

As to “J3KQ32 and related entries (UniProt Q9NTK5)”, the NP40-soluble protein abundance was determined as 0.989 ± 0.042.

Turning to “H0Y362 and related entries (UniProt Q8NEW0)”, the NP40-soluble protein abundance is 0.995 ± 0.012.

Consider “H0Y5C6 and related entries (UniProt P21333)”, for which the NP40-soluble protein abundance was determined as 0.983 ± 0.029.

Turning to “G3XAN4 and related entries (UniProt Q15629)”, the NP40-soluble protein abundance is 1 ± 0.017.

Turning to “H3BSH7 and related entries (UniProt Q969X6)”, the NP40-soluble protein abundance was 0.997 ± 0.042.

Take “H0Y9Z5 and related entries (UniProt Q96LI5)”: the NP40-soluble protein abundance was 0.973 ± 0.059.

Turning to “H0YEH1 and related entries (UniProt Q13492)”, the NP40-soluble protein abundance was determined as 1.02 ± 0.022.

“J3QSH4 and related entries (UniProt Q14119)”: the NP40-soluble protein abundance was 0.973 ± 0.048.

Regarding “K4DI93 and related entries (UniProt Q13620)”, the NP40-soluble protein abundance worked out at 1 ± 0.0078.

For the target “H0UI80 and related entries (UniProt X6RLT1+Q8IXH7+H0UI80)”, the NP40-soluble protein abundance came to 0.982 ± 0.058.

As for “J3QKT3 and related entries (UniProt P32322)”, the NP40-soluble protein abundance came out at 1.03 ± 0.062.

Consider “H7BXH9 and related entries (UniProt Q8WXB1)”, for which the NP40-soluble protein abundance came to 1.02 ± 0.079.

Regarding “H3BP71 and related entries (UniProt O75150)”, the NP40-soluble protein abundance amounted to 1.04 ± 0.059.

Regarding “J3QL56 and related entries (UniProt O75880)”, the NP40-soluble protein abundance worked out at 1.01 ± 0.043.

As to “H3BSW0 and related entries (UniProt Q8N9N7)”, the NP40-soluble protein abundance was determined as 0.986 ± 0.033.

Turning to “G3XAI9 and related entries (UniProt Q5BKY9)”, the NP40-soluble protein abundance turned out to be 1.01 ± 0.027.

Consider “I3L397 and related entries (UniProt P63241)”, for which the NP40-soluble protein abundance came to 0.812 ± 0.13.

For the target “H0YEM9 and related entries (UniProt Q8NCP5)”, the NP40-soluble protein abundance turned out to be 1.015 ± 0.0089.

Regarding “H0Y7P7 and related entries (UniProt Q9UG56)”, the NP40-soluble protein abundance came to 0.9579 ± 0.0055.

As for “I3L3Q7 and related entries (UniProt Q07021)”, the NP40-soluble protein abundance was 0.93 ± 0.17.

As to “H0YK61 and related entries (UniProt Q5J8M3)”, the NP40-soluble protein abundance is 0.996 ± 0.069.

In the case of “J3QLS3 and related entries (UniProt Q9Y2R9)”, the NP40-soluble protein abundance turned out to be 1.01 ± 0.017.

“J3KSZ8 and related entries (UniProt Q68DK7)”: the NP40-soluble protein abundance was 1.01 ± 0.018.

Turning to “H0Y612 and related entries (UniProt Q9UPN9)”, the NP40-soluble protein abundance amounted to 1.01 ± 0.029.

With “G3V5T0 and related entries (UniProt O43708)”, the NP40-soluble protein abundance is 0.975 ± 0.063.

In the case of “J3KPP0 and related entries (UniProt Q9Y6G3)”, the NP40-soluble protein abundance was 0.938 ± 0.068.

On to “H0Y8P4 and related entries (UniProt Q8TED0)”, for which the NP40-soluble protein abundance stood at 1.01 ± 0.014.

Take “I3L3Z2 and related entries (UniProt Q9BRA0)”: the NP40-soluble protein abundance came out at 0.997 ± 0.017.

Consider “J3QL71 and related entries (UniProt Q96FV2)”, for which the NP40-soluble protein abundance was determined as 1.05 ± 0.069.
